Measurements reported in the supplement of paper PMC10849652.
The list shows a part of the results.

Sequences of proteins named here, by UniProt entry; tags and fusion partners are left off. A change or cut given only in a name is not applied to a line headed by its entry.
UniProt O75175, whole entry, looked up: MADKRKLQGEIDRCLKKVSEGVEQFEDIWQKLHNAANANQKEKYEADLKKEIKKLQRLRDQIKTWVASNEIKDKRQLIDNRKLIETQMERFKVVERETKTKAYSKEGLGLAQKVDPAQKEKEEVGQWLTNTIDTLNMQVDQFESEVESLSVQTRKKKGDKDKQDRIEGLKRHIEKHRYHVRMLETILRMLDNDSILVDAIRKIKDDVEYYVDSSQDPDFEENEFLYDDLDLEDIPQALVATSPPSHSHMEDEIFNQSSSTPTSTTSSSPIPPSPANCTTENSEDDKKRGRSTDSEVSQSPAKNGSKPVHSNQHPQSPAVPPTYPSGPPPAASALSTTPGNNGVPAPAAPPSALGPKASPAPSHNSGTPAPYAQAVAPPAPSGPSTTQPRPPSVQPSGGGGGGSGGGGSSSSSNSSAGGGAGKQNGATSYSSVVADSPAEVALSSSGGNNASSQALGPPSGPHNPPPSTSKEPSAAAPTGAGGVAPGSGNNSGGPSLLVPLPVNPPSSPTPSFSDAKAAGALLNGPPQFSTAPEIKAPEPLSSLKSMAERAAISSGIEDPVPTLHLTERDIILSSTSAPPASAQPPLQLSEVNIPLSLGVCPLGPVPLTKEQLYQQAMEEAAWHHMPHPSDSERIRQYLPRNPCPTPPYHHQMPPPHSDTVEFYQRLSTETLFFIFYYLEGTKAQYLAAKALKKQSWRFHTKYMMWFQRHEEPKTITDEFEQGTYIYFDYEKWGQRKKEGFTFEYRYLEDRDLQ
UniProt Q99439: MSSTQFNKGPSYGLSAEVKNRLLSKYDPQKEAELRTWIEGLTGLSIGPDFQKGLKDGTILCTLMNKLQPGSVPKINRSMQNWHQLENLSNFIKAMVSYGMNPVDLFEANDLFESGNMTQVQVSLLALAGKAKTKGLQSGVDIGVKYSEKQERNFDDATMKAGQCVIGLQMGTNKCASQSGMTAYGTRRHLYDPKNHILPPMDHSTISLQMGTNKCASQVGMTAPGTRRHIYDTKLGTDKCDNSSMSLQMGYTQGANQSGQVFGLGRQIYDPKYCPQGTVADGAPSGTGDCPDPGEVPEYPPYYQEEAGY
UniProt Q14011: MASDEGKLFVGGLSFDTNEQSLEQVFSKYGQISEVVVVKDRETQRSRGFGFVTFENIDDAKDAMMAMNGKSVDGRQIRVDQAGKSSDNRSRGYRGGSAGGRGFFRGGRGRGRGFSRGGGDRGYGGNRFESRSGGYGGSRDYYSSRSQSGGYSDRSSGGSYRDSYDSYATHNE
UniProt Q96MX0: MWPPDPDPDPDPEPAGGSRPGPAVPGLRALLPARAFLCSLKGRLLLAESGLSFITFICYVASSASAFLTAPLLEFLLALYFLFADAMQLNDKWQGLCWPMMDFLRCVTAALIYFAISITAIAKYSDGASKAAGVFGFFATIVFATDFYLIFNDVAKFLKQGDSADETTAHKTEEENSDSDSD
UniProt P12277: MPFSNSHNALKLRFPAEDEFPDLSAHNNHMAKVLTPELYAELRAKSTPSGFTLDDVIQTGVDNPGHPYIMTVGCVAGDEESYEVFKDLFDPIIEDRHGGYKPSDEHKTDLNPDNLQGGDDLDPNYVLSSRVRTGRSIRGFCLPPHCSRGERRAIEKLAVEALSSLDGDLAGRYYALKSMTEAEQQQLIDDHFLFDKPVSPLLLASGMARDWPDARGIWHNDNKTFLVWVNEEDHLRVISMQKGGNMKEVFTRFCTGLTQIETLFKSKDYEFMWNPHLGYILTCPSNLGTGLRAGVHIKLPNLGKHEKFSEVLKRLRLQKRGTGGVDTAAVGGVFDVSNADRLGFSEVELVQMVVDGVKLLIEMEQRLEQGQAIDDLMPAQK
UniProt Q9NY35: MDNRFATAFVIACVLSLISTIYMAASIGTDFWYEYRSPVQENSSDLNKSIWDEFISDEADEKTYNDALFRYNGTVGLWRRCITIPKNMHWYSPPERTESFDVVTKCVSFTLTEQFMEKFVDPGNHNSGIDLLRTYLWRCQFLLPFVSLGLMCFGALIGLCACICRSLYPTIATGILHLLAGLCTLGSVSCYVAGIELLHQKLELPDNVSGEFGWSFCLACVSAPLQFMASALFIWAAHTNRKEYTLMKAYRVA
UniProt Q13057: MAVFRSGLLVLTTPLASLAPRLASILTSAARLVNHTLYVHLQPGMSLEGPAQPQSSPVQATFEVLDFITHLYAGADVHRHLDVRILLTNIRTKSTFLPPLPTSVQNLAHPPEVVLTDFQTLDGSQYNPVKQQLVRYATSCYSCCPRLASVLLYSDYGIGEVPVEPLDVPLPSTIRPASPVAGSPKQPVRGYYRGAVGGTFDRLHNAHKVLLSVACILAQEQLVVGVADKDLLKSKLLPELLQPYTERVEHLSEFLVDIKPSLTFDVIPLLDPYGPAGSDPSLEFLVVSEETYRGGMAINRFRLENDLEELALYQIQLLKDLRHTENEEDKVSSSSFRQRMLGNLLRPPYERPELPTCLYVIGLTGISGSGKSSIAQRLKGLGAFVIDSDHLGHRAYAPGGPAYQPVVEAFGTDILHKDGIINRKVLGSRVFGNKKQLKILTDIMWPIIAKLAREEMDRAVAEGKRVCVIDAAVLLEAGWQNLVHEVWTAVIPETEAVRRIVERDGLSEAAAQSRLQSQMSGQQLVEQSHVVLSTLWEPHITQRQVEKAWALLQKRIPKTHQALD
UniProt O43529: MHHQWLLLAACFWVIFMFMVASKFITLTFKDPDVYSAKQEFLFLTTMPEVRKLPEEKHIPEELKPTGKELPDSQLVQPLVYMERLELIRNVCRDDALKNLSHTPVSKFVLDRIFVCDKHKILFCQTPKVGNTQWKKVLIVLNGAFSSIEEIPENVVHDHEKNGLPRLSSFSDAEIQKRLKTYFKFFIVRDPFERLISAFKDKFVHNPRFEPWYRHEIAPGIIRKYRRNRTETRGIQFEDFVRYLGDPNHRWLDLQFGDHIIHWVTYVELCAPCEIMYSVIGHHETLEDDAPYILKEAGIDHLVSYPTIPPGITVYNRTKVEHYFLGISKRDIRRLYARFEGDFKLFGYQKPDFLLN
UniProt P61024, whole entry, looked up: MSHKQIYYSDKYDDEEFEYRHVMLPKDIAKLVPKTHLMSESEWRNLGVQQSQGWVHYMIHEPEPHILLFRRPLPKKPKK
UniProt Q9C0A0: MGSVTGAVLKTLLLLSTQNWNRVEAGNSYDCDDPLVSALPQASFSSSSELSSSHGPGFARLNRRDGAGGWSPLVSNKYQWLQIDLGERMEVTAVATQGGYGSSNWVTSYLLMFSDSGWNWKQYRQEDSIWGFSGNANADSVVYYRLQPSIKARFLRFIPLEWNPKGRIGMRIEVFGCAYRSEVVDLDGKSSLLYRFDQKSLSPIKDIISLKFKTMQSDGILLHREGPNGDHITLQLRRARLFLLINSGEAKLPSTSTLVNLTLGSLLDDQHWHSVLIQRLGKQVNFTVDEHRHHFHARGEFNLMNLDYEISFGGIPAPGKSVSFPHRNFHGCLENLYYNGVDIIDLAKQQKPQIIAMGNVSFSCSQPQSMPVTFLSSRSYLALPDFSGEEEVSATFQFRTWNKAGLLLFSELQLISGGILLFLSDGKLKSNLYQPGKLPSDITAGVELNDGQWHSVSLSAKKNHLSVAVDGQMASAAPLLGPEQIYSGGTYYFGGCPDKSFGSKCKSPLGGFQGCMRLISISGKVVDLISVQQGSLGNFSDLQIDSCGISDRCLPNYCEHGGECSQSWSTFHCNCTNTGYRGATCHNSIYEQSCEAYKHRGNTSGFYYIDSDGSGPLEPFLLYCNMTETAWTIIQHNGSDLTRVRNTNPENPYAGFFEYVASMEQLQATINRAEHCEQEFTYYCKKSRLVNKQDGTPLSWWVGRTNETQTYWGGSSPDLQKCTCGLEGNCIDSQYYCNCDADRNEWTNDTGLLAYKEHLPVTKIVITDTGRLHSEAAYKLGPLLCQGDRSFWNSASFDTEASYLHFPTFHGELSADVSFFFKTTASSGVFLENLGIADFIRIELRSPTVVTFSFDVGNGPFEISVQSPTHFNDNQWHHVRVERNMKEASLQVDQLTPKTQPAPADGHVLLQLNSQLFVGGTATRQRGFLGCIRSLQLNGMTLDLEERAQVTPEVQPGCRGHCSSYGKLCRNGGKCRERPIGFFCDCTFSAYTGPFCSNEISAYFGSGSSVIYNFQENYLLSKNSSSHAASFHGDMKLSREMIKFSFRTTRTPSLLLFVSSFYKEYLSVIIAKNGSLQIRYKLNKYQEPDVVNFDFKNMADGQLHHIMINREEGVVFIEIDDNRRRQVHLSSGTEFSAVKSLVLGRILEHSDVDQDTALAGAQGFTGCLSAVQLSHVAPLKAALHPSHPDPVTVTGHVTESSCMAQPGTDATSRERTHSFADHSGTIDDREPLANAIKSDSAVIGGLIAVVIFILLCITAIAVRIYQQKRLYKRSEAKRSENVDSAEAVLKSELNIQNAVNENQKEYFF
UniProt O15247: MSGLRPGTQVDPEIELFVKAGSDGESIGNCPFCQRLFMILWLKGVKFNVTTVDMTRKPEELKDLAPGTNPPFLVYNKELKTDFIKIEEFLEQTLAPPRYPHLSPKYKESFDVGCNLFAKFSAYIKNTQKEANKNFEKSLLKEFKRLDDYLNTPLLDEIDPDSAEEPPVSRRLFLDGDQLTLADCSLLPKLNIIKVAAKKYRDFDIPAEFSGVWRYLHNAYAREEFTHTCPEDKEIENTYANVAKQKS
UniProt Q8N1G2: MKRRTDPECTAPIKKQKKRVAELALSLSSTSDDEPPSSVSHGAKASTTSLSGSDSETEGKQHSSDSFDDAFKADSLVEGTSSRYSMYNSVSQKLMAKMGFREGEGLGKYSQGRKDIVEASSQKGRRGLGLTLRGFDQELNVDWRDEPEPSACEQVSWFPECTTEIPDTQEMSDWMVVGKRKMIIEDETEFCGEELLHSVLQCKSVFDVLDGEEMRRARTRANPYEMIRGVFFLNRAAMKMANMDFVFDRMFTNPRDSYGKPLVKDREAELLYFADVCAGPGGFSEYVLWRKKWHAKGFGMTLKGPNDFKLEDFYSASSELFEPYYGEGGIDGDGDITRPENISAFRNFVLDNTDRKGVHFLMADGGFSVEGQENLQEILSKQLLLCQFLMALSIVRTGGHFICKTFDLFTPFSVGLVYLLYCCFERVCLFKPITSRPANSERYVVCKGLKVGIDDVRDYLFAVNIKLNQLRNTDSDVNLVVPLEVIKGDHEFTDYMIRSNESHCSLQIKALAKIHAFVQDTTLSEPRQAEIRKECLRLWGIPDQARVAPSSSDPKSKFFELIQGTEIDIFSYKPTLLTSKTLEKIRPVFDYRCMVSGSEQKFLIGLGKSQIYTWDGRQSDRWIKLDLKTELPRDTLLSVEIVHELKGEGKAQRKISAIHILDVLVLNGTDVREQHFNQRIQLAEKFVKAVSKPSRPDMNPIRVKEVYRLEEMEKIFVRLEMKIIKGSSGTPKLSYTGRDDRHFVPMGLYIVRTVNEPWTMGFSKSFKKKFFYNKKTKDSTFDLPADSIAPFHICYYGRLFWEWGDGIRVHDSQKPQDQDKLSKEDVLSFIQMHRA
UniProt O95628: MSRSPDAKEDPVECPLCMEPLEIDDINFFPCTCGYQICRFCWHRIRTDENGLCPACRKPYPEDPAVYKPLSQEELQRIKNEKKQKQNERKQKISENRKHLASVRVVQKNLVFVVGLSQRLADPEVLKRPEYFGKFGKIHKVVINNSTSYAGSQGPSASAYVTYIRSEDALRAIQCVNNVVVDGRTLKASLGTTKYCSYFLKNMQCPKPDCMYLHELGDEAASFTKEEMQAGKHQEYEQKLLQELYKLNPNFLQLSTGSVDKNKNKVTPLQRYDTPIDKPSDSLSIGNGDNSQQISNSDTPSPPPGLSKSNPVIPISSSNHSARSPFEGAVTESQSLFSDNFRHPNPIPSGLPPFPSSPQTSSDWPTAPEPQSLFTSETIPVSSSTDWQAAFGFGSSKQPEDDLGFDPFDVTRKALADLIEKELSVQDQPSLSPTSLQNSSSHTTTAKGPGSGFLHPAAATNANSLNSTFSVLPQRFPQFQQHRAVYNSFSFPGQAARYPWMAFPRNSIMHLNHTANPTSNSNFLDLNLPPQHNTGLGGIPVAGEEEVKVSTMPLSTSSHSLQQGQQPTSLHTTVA
UniProt Q96KP4: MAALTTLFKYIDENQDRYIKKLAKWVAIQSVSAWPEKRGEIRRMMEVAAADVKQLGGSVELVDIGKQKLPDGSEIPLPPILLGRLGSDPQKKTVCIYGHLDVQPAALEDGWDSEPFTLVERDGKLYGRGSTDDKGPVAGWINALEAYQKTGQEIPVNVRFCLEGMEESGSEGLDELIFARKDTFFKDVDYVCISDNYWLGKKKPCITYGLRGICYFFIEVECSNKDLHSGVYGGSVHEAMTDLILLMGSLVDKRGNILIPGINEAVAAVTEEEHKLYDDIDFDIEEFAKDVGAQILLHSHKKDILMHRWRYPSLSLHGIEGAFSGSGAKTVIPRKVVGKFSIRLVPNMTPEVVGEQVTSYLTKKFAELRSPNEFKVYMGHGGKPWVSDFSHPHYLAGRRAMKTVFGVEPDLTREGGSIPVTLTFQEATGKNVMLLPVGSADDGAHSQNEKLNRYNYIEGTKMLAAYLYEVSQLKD

Assays:
Test in all cases: log2 fold change, soluble protein after heating vs DMSO (PISA); higher = thermal stabilisation; K562 cells, 10 uM, 30 min; active = over 0.2 and 3.5 SD of the protein, either way, in both replicates (recomputed)
[1] = compound: COC1=CC=C(C=C1)CN2C=CC3=C2C=C(C=C3)C(=O)NO
Outline: (§1)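 Soluble protein was quantified by TMTpro 16plex LC-MS/MS after channel sums were equalised. It was obtained as the supernatant after 21,000xg for 90 min from pooled aliquots of K562 cells (2×10^6 cells/mL, 10 μM compound, 30 min) heated for 3 min across 48°C-58°C and extracted in PBS with 0.5% NP-40 at 4°C. Thermal stability values are relative to control samples and come from duplicates. They are given as log2 fold changes.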

filanesib = compound: CON(C)C(=O)N1N=C(c2cc(F)ccc2F)S[C@@]1(CCCN)c1ccccc1 [filanesib]
Outline: as §1

zotarolimus = compound: CO[C@H]1C[C@@H]2CC[C@@H](C)[C@@](O)(O2)C(=O)C(=O)N2CCCC[C@H]2C(=O)O[C@H]([C@H](C)C[C@@H]2CC[C@H](n3cnnn3)[C@H](OC)C2)CC(=O)[C@H](C)/C=C(\C)[C@@H](O)[C@@H](OC)C(=O)[C@H](C)C[C@H](C)/C=C/C=C/C=C/1C [zotarolimus]
Outline: as §1

idasanutlin = compound: COc1cc(C(=O)O)ccc1NC(=O)[C@@H]1N[C@@H](CC(C)(C)C)[C@](C#N)(c2ccc(Cl)cc2F)[C@H]1c1cccc(Cl)c1F [idasanutlin]
Outline: as §1

alisertib = compound: COc1cc(Nc2ncc3c(n2)-c2ccc(Cl)cc2C(c2c(F)cccc2OC)=NC3)ccc1C(=O)O [alisertib]
Outline: as §1

[2] = compound: COc1cc2nc(-c3cc(F)ccc3O)nc(N[C@@H]3CNC[C@H]3C(C)(C)O)c2cc1OC
Outline: as §1

gefitinib = compound: COc1cc2ncnc(Nc3ccc(F)c(Cl)c3)c2cc1OCCCN1CCOCC1 [gefitinib]
Outline: as §1

[3] = compound: COc1cccc2cc(-c3nc([C@H]4CC[C@H](C(=O)O)CC4)n4ncnc(N)c34)[nH]c12
Outline: as §1

lapatinib = compound: CS(=O)(=O)CCNCc1ccc(-c2ccc3ncnc(Nc4ccc(OCc5cccc(F)c5)c(Cl)c4)c3c2)o1 [lapatinib]
Outline: as §1

pictilisib = compound: CS(=O)(=O)N1CCN(Cc2cc3nc(-c4cccc5[nH]ncc45)nc(N4CCOCC4)c3s2)CC1 [pictilisib]
Outline: as §1

[4] = compound: CS(=O)(=O)c1ccc(-c2cnc(N)c(C(=O)Nc3ccccc3)n2)cc1
Outline: as §1

crizotinib = compound: C[C@@H](Oc1cc(-c2cnn(C3CCNCC3)c2)cnc1N)c1c(Cl)ccc(F)c1Cl [crizotinib]
Outline: as §1

[5] = compound: C[C@@H]1COCCN1C2=NC(=NC(=C2)C3(CC3)S(=O)(=O)C)C4=C5C=CNC5=CC=C4
Outline: as §1

[6] = compound: C[C@H](C1=CC=C(C=C1)C(=O)NC2=C3C=CNC3=NC=C2)N
Outline: as §1

duvelisib = compound: C[C@H](Nc1ncnc2nc[nH]c12)c1cc2cccc(Cl)c2c(=O)n1-c1ccccc1 [duvelisib]
Outline: as §1

gandotinib = compound: Cc1cc(Nc2cc(CN3CCOCC3)c3nc(C)c(Cc4ccc(Cl)cc4F)n3n2)n[nH]1 [gandotinib]
Outline: as §1

tozasertib = compound: Cc1cc(Nc2cc(N3CCN(C)CC3)nc(Sc3ccc(NC(=O)C4CC4)cc3)n2)n[nH]1 [tozasertib]
Outline: as §1

[7] = compound: Cc1cc(SCc2sc(-c3ccc(C(F)(F)F)cc3)nc2C)ccc1OCC(=O)O
Outline: as §1

doramapimod = compound: Cc1ccc(-n2nc(C(C)(C)C)cc2NC(=O)Nc2ccc(OCCN3CCOCC3)c3ccccc23)cc1 [doramapimod]
Outline: as §1

ispinesib = compound: Cc1ccc(C(=O)N(CCCN)[C@@H](c2nc3cc(Cl)ccc3c(=O)n2Cc2ccccc2)C(C)C)cc1 [ispinesib]
Outline: as §1

Measured: log2 fold change

CNOT3 (UniProt O75175)
inactive: [1] -0.037 | filanesib 0.023 | zotarolimus 0.014 | idasanutlin 0.008 | alisertib -0.001 | [2] 0 | gefitinib -0.044 | [3] -0.046 | lapatinib 0.025 | pictilisib 0.014 | [4] -0.023 | crizotinib -0.053 | [5] -0.034 | [6] -0.01 | duvelisib 0.029 | gandotinib -0.077 | tozasertib 0.051 | [7] 0.064 | doramapimod -0.021 | ispinesib -0.002

CNN2 (UniProt Q99439)
inactive: [1] -0.008 | filanesib -0.058 | zotarolimus -0.002 | idasanutlin -0.029 | alisertib -0.007 | [2] 0.021 | gefitinib 0.012 | [3] -0.065 | lapatinib -0.041 | pictilisib -0.054 | [4] -0.003 | crizotinib -0.058 | [5] 0.058 | [6] -0.005 | gandotinib -0.088 | [7] 0.012 | doramapimod 0.007 | ispinesib -0.059

CIRBP isoform 2 (UniProt Q14011)
inactive: [1] -0.005 | filanesib 0.248 | zotarolimus -0.048 | idasanutlin 0.085 | alisertib -0.118 | [2] 0.017 | gefitinib -0.063 | [3] -0.051 | lapatinib -0.034 | pictilisib -0.095 | [4] -0.052 | crizotinib -0.004 | [5] -0.255 | [6] 0.15 | duvelisib -0.141 | gandotinib 0.248 | tozasertib 0.007 | [7] 0.014 | doramapimod 0.028 | ispinesib -0.041

CMTM3 (UniProt Q96MX0)
inactive: [1] -0.122 | filanesib 0.105 | zotarolimus -0.075 | idasanutlin -0.045 | alisertib -0.069 | [2] -0.018 | gefitinib 0.021 | [3] 0.035 | lapatinib -0.062 | pictilisib -0.091 | [4] 0.063 | crizotinib -0.007 | [5] -0.002 | [6] -0.133 | gandotinib 0.132 | [7] -0.102 | doramapimod -0.065

CKB (UniProt P12277)
inactive: [1] -0.031 | filanesib -0.097 | zotarolimus 0.061 | idasanutlin -0.047 | alisertib -0.093 | [2] -0.007 | gefitinib 0.002 | [3] 0.01 | lapatinib 0.016 | pictilisib 0.022 | [4] 0.059 | crizotinib -0.174 | [5] 0.077 | [6] 0.053 | gandotinib -0.109 | [7] 0.021 | doramapimod -0.009 | ispinesib -0.022

CLDND1 (UniProt Q9NY35)
inactive: [1] 0.047 | filanesib 0.079 | zotarolimus -0.166 | idasanutlin 0.041 | alisertib 0.031 | [2] 0.021 | gefitinib 0.056 | [3] 0.01 | lapatinib 0.006 | [4] 0.065 | crizotinib 0.094 | [5] 0.047 | [6] 0.092 | duvelisib 0 | gandotinib 0 | tozasertib 0.049 | [7] -0.056 | doramapimod -0.001 | ispinesib -0.196

COASY isoform 2 (UniProt Q13057)
inactive: [1] 0.034 | filanesib -0.061 | zotarolimus 0.024 | idasanutlin -0.071 | alisertib -0.038 | [2] 0.01 | gefitinib -0.038 | [3] 0.045 | lapatinib 0.043 | pictilisib 0.028 | [4] -0.052 | crizotinib -0.071 | [5] 0.133 | [6] -0.09 | gandotinib -0.058 | [7] 0.045 | doramapimod -0.063 | ispinesib -0.057

CHST10 (UniProt O43529)
inactive: [1] -0.11 | filanesib 0.021 | zotarolimus 0.088 | idasanutlin 0.062 | alisertib -0.014 | [2] -0.073 | gefitinib -0.071 | [3] 0.088 | lapatinib 0.058 | pictilisib 0.027 | [4] 0.235 | crizotinib -0.206 | [5] 0.014 | [6] 0.009 | gandotinib 0.087 | doramapimod 0.015 | ispinesib -0.009

CKS1B (UniProt P61024)
inactive: [1] -0.045 | filanesib 0.047 | zotarolimus 0.013 | idasanutlin -0.011 | alisertib -0.012 | [2] -0.048 | gefitinib -0.008 | [3] 0.031 | lapatinib 0.004 | pictilisib -0.007 | [4] -0.013 | crizotinib 0.063 | [5] 0.06 | [6] -0.051 | gandotinib 0 | [7] -0.093 | doramapimod -0.026 | ispinesib 0.224

CNTNAP4 (UniProt Q9C0A0)
inactive: [1] -0.231 | filanesib 0.463 | zotarolimus 0 | idasanutlin 0.187 | alisertib -0.111 | [2] -0.083 | gefitinib -0.014 | [3] -0.121 | lapatinib 0.014 | pictilisib -0.218 | [4] -0.176 | crizotinib 0.089 | [5] 0.016 | [6] 0.256 | duvelisib -0.142 | gandotinib 0.147 | tozasertib 0.062 | [7] -0.005 | doramapimod 0.14 | ispinesib -0.043

CLIC2 (UniProt O15247)
inactive: [1] 0.072 | filanesib -0.02 | zotarolimus 0.092 | idasanutlin 0.026 | alisertib -0.057 | [2] 0.027 | gefitinib 0.032 | [3] -0.076 | lapatinib -0.025 | [4] 0.031 | crizotinib 0.01 | [5] 0.045 | [6] 0.009 | duvelisib -0.019 | gandotinib -0.107 | tozasertib 0.065 | [7] 0.134 | doramapimod -0.07 | ispinesib 0.073

CIT isoform 4 (UniProt O14578)
active: [2] -0.228
inactive: [1] -0.099 | filanesib 0.055 | zotarolimus -0.003 | idasanutlin 0.027 | alisertib -0.036 | gefitinib -0.12 | [3] -0.06 | lapatinib 0.031 | pictilisib -0.044 | [4] -0.023 | crizotinib -0.077 | [5] -0.013 | [6] 0.08 | gandotinib -0.001 | [7] -0.033 | doramapimod 0.026 | ispinesib 0.072

CMBL (UniProt Q96DG6)
inactive: [1] 0.02 | filanesib -0.035 | zotarolimus -0.015 | idasanutlin -0.06 | alisertib -0.049 | [2] 0.06 | gefitinib 0.02 | [3] 0.011 | lapatinib -0.055 | pictilisib 0.19 | [4] 0.07 | crizotinib 0.108 | [5] 0.011 | [6] -0.06 | duvelisib 0.024 | gandotinib 0.008 | tozasertib -0.024 | [7] -0.04 | doramapimod -0.062 | ispinesib 0.032

Fetched one by one from the list above, two records:
CKS1B (UniProt P61024)
inactive: [1] -0.045 | filanesib 0.047 | zotarolimus 0.013 | idasanutlin -0.011 | alisertib -0.012 | [2] -0.048 | gefitinib -0.008 | [3] 0.031 | lapatinib 0.004 | pictilisib -0.007 | [4] -0.013 | crizotinib 0.063 | [5] 0.06 | [6] -0.051 | gandotinib 0 | [7] -0.093 | doramapimod -0.026 | ispinesib 0.224

CLIC2 (UniProt O15247)
inactive: [1] 0.072 | filanesib -0.02 | zotarolimus 0.092 | idasanutlin 0.026 | alisertib -0.057 | [2] 0.027 | gefitinib 0.032 | [3] -0.076 | lapatinib -0.025 | [4] 0.031 | crizotinib 0.01 | [5] 0.045 | [6] 0.009 | duvelisib -0.019 | gandotinib -0.107 | tozasertib 0.065 | [7] 0.134 | doramapimod -0.07 | ispinesib 0.073

(further entries)

CMTR1 (UniProt Q8N1G2)
inactive: filanesib 0.001 | zotarolimus -0.013 | idasanutlin -0.052 | alisertib -0.026 | [2] 0.065 | gefitinib 0.025 | [3] 0.017 | lapatinib -0.012 | pictilisib 0.009 | [4] 0.02 | crizotinib 0.014 | [5] 0.011 | [6] 0.059 | gandotinib 0.025 | [7] 0.029 | doramapimod -0.036 | ispinesib -0.002
active: [1] -0.337

CNOT4 isoform 6 (UniProt O95628)
inactive: [1] -0.057 | filanesib 0.017 | zotarolimus -0.023 | idasanutlin -0.001 | alisertib -0.036 | [2] 0.037 | gefitinib -0.007 | [3] -0.012 | lapatinib -0.008 | pictilisib 0.036 | [4] 0.007 | crizotinib 0.031 | [5] 0.056 | [6] -0.076 | gandotinib -0.005 | [7] 0.014 | doramapimod -0.02 | ispinesib 0.066

CNDP2 (UniProt Q96KP4)
inactive: [1] -0.171 | filanesib -0.145 | zotarolimus 0.041 | idasanutlin -0.024 | alisertib -0.049 | [2] -0.001 | gefitinib -0.008 | [3] 0.027 | lapatinib 0.017 | pictilisib 0.021 | [4] 0.03 | crizotinib -0.061 | [5] 0.102 | [6] -0.067 | gandotinib 0.072 | [7] 0.015 | doramapimod 0.018 | ispinesib -0.099
